PubChem BioAssay AID1508588, Peter MacCallum Cancer Centre | 2020

Assay: 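Knock-downs boosting vemurafenib effects on melanoma cell growth or lactate release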 (primary screen)
Cell system: human WM266.4 melanoma cells (BRAF V600 mutant)
Reagent: siRNA pool against human genes, 40 nM
Time to read-out: 96 h from transfection to read-out
Conditions: vemurafenib 300 nM (about IC25), added 48 h after transfection, for 48 h; comparison arm got DMSO vehicle only
Detection: 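Ratios to non-targeting siRNA for cell gain, counted as DAPI nuclei after minus before drug and averaged over two replicates, and for absorbance-read medium lactate per cell; both binned into fold-change classes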
Scale: cell gain with vemurafenib: higher = more cell gain than with non-targeting siRNA; lactate per cell with vemurafenib: higher = more lactate made per cell
Call rule: 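a knock-down counts as enhancing when its fold-change classes with vehicle and with vemurafenib, taken together, show a stronger drug effect on cell gain or lactate per cell; exact class pairs not stated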
Meaning of the calls: active = enhances vemurafenib effect; inactive = no enhancement seen
Here is a random part of about 18,000 reagents tested. 790 of all reagents (4.4%) count as active. 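Calls rest on a combination of fold-change classes in drug and vehicle arms, not all shown here.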 Unmarked entries are inactive.

Target gene	cell gain with vemurafenib	lactate per cell with vemurafenib
ZNF570 (zinc finger protein 570)	0.41	0.97
CALR (calreticulin)	0.27	0.83
HOXA6 (homeobox A6)	0.68	0.87
MGAT4D (MGAT4 family member D)	0.92	1.55
SSB (small RNA binding exonuclease protection factor La)	0.41	0.6
ABHD14A (abhydrolase domain containing 14A)	0.81	0.54
SPINK14 (serine peptidase inhibitor Kazal type 14 (putative))	0.91	0.52
TNS1 (tensin 1)	0.32	0.8
SYNPO2 (synaptopodin 2)	0.73	1.52
VWA1 (von Willebrand factor A domain containing 1)	0.99	1.08
WDR12 (WD repeat domain 12)	0.27	1.02
APOD (apolipoprotein D)	1.06	1.17
LRSAM1 (leucine rich repeat and sterile alpha motif containing 1)	1.17	0.82
BLOC1S2 (biogenesis of lysosomal organelles complex 1 subunit 2)	0.67	0.46
GRAP (GRB2 related adaptor protein)	0.86	1.4
DEF8 (differentially expressed in FDCP 8 homolog)	0.63	0.98
DENND4A (DENN domain containing 4A)	0.7	0.99
C21orf58 (chromosome 21 open reading frame 58)	0.26	2.48
ERP27 (endoplasmic reticulum protein 27)	0.3	1.6
MKNK1 (MAPK interacting serine/threonine kinase 1)	0.94	0.84

4 entries already listed, ordered by “cell gain with vemurafenib”, lowest first:
Target gene	cell gain with vemurafenib	lactate per cell with vemurafenib
CALR (calreticulin)	0.27	0.83
ZNF570 (zinc finger protein 570)	0.41	0.97
HOXA6 (homeobox A6)	0.68	0.87
MGAT4D (MGAT4 family member D)	0.92	1.55

The list goes on.
Target gene	cell gain with vemurafenib	lactate per cell with vemurafenib
NPHS1 (NPHS1 adhesion molecule, nephrin)	0.71 (active)	0.44
SLC9D1	0.81	1.02
OSBPL8 (oxysterol binding protein like 8)	0.38	1.04
MAF1 (MAF1 negative regulator of RNA polymerase III)	0.32	2.12
P2RX3 (purinergic receptor P2X 3)	0.74	0.82
ZNF70 (zinc finger protein 70)	0.26	0.51
RALGAPA2 (Ral GTPase activating protein catalytic subunit alpha 2)	1.32	0.49
BCL6B (BCL6B transcription repressor)	0.51	1.1
HOXD3 (homeobox D3)	0.67	1.11
SEPTIN10 (septin 10)	0.2	1.34
ZNHIT2 (zinc finger HIT-type containing 2)	0.61	1.09
ABCC8 (ATP binding cassette subfamily C member 8)	0.26	0.21
METTL23 (methyltransferase 23, arginine)	0.79	0.58
BCL2L14 (BCL2 like 14)	0.17	1.19
